From PMC6915745, “TRIB3 supports breast cancer stemness by suppressing FOXO1 degradation and enhancing SOX2 transcription” (Nature Communications, 2019)
Construct, isoform or probe ends are uncertain for at least one entry. Results from cells or extracts need not show a direct contact.

Sequences of proteins named here, by UniProt entry; tags and fusion partners are left off. A change or cut given only in a name is not applied to a line headed by its entry.
UniProt P48431: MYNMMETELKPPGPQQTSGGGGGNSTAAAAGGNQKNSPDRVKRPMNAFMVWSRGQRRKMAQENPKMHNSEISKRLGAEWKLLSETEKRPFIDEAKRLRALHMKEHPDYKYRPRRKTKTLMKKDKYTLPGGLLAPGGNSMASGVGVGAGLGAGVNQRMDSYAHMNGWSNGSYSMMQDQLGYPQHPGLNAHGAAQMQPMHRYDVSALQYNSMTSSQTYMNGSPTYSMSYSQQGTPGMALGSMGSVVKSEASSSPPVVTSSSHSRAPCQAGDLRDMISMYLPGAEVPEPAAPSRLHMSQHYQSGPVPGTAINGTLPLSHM

Molecular target: SOX2 (UniProt P48431)
Test: EMSA
Conditions: nuclear extract of SOX2-expressing HEK293, LightShift Chemiluminescent EMSA kit reaction buffer (composition and pH not stated), 20 min at room temperature, 6% polyacrylamide gel, protein in an extract, protein details: Myc tag (MCF7-SOX2-Myc in Methods), label: biotin

ATCTCCTCCCCGCGCCGGAGCCCCTGTTCCTCATTTCTAG (double strand) [EMSA #6]
binding result: binds
